# From PubChem BioAssay AID504444 (National Center for Advancing Translational Sciences (NCATS), 2011)
# Out of some 360,000 compounds screened, about 7,500 (2.1%) were called active. The inconclusive results got no clear call from the source; some entries with a clear call stand among them for comparison. Calls follow the shape of the dose curve; as a rule, active = well fitted inhibition curve with a large enough effect; inconclusive = small, poorly fitted or top-dose-only effect, or effect the other way; inactive = flat fitted curve, though single readings scatter. Potencies of inconclusive entries are doubtful fits and often do not repeat.
# Experiment: Nrf2 qHTS screen for inhibitors; also: nearly all actives have a fitted effect of over 60% in size
# Details: A549 ARE-Fluc reporter, luciferase luminescence, 18-24 h; activity change, negative = inhibition: at 46 µM (top of the series)
# How it was run: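 Concentration-response testing used A549 ARE_Fluc cells at 5000 cells/well. Following an 18-24 h compound incubation, viability was read by fluorescence (Ex 405/Em 525) and luciferase output by luminescence.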
# % is scaled to controls: 0 for no effect and ±100 for the full control effect; potency is read from the fitted curve at half-maximal effect.
Compound,Potency,"activity change, negative = inhibition"
Cc1[nH]n(-c2ccccc2)c(=O)c1C1(C(F)(F)F)C(=O)N(c2ccccc2)C2=C1C(=O)CC(C)(C)C2 (configuration not stated),"inconclusive: 0.231 µM [falling, full curve, poor fit]",–
O=S(=O)(Nc1ccc(Cc2ccncc2)cc1)N1CCCC1,"inconclusive: 13 µM [falling, partial curve, poor fit]",–
O=CN/N=C/c1c(O)ccc2ccccc12,"inconclusive: 20.6 µM [falling, single point]",–
C=CCN(c1ccccc1)S(=O)(=O)c1cccc(C(=O)Nc2ccncc2)c1,"inconclusive: 25.9 µM [falling, single point]",–
N#C/C(=C/c1ccc(N2CCCCC2)o1)c1cccc(F)c1,"inconclusive: 3.66 µM [activator, full curve]",–
Cc1cc(C)cc(Nc2ncnc3onc(-c4ccc(F)cc4)c23)c1,"inconclusive: 29.1 µM [falling, single point]",–
COc1ccc(N=C2S/C(=C\c3cc(C)n(C)c3C)C(=O)N2C)cc1,"inconclusive: 29.1 µM [falling, single point]",–
CC(Nc1nc(Cl)nc2nc[nH]c12)c1ccccc1 (configuration not stated),"inconclusive: 32.6 µM [falling, single point]",–
CCN(CC)S(=O)(=O)c1ccc(Cl)c(NC2=NCCCCC2)c1,–,inactive: -1.61%
CC(C)c1noc2ncc(C(=O)c3cc(Cl)cc(Cl)c3O)cc12,–,inactive: 10.1%
CCc1nnc(NS(=O)(=O)c2ccc(NC(=S)NC(=O)c3ccc(F)cc3)cc2)s1,–,inactive: -8.05%
O=C(CCN1C(=O)/C(=C\C=C\c2ccccc2)SC1=S)Nc1ccc(C(=O)O)cc1,–,inactive: 2.65%
Cc1nc2cc(-c3cccc(F)c3)nn2c(C)c1CCC(=O)NC(C)c1ccc2c(c1)OCCO2 (configuration not stated),"inconclusive: 11.6 µM [falling, partial curve]",–
Cc1ccc(C)c(Nc2nc3c(S(=O)(=O)c4ccc(Br)cc4)nnn3c3ccsc23)c1,"inconclusive: 29.1 µM [falling, single point]",–
CCOc1ccc(S(=O)(=O)N(CC(=O)NCc2ccncc2)c2ccc(C)cc2)cc1,"inconclusive: 9.2 µM [falling, partial curve, poor fit]",–
CCC/C=C(\CCC)C(NC(=O)Cc1ccccc1)c1ccc(C(=O)OC)cc1 (configuration not stated),"inconclusive: 25.9 µM [falling, single point]",–
O=C(NC1CCCCC1)C(c1cccnc1)N(C(=O)CCl)c1ccccc1Cl (configuration not stated),"inconclusive: 23.1 µM [falling, single point]",–
CCCCCCSc1nsc(NC(=O)CCC)n1,"inconclusive: 10.3 µM [falling, partial curve]",–
CC(O)CNc1ncnc2nc[nH]c12 (configuration not stated),"inconclusive: 16.4 µM [activator, single point]",–
O=C(NCCCN1CCOCC1)c1ccc(Cl)c(S(=O)(=O)N2CCCCCC2)c1,"inconclusive: 20.6 µM [falling, single point]",–
O=C(C1COc2ccccc2O1)N1CCN(Cc2ccc3c(c2)OCO3)CC1 (configuration not stated),"inconclusive: 8.2 µM [falling, partial curve]",–
O=C(NN=Cc1ccc2c(c1)OCO2)c1ccccc1,"inconclusive: 2.91 µM [activator, full curve]",–
Cc1ccc(N2Cc3ccccc3C2=O)cc1,"inconclusive: 0.326 µM [activator, full curve, poor fit]",–

# Some of the entries above, reformatted.
Compound	Potency	activity change, negative = inhibition
Cc1cc(C)cc(Nc2ncnc3onc(-c4ccc(F)cc4)c23)c1	inconclusive: 29.1 µM [falling, single point]	–
COc1ccc(N=C2S/C(=C\c3cc(C)n(C)c3C)C(=O)N2C)cc1	inconclusive: 29.1 µM [falling, single point]	–
CC(Nc1nc(Cl)nc2nc[nH]c12)c1ccccc1 (configuration not stated)	inconclusive: 32.6 µM [falling, single point]	–
CCN(CC)S(=O)(=O)c1ccc(Cl)c(NC2=NCCCCC2)c1	–	inactive: -1.61%
CC(C)c1noc2ncc(C(=O)c3cc(Cl)cc(Cl)c3O)cc12	–	inactive: 10.1%
CCc1nnc(NS(=O)(=O)c2ccc(NC(=S)NC(=O)c3ccc(F)cc3)cc2)s1	–	inactive: -8.05%
O=C(CCN1C(=O)/C(=C\C=C\c2ccccc2)SC1=S)Nc1ccc(C(=O)O)cc1	–	inactive: 2.65%
Cc1nc2cc(-c3cccc(F)c3)nn2c(C)c1CCC(=O)NC(C)c1ccc2c(c1)OCCO2 (configuration not stated)	inconclusive: 11.6 µM [falling, partial curve]	–
Cc1ccc(C)c(Nc2nc3c(S(=O)(=O)c4ccc(Br)cc4)nnn3c3ccsc23)c1	inconclusive: 29.1 µM [falling, single point]	–
CCOc1ccc(S(=O)(=O)N(CC(=O)NCc2ccncc2)c2ccc(C)cc2)cc1	inconclusive: 9.2 µM [falling, partial curve, poor fit]	–
CCC/C=C(\CCC)C(NC(=O)Cc1ccccc1)c1ccc(C(=O)OC)cc1 (configuration not stated)	inconclusive: 25.9 µM [falling, single point]	–
O=C(NC1CCCCC1)C(c1cccnc1)N(C(=O)CCl)c1ccccc1Cl (configuration not stated)	inconclusive: 23.1 µM [falling, single point]	–
CCCCCCSc1nsc(NC(=O)CCC)n1	inconclusive: 10.3 µM [falling, partial curve]	–
CC(O)CNc1ncnc2nc[nH]c12 (configuration not stated)	inconclusive: 16.4 µM [activator, single point]	–
O=C(NCCCN1CCOCC1)c1ccc(Cl)c(S(=O)(=O)N2CCCCCC2)c1	inconclusive: 20.6 µM [falling, single point]	–
O=C(C1COc2ccccc2O1)N1CCN(Cc2ccc3c(c2)OCO3)CC1 (configuration not stated)	inconclusive: 8.2 µM [falling, partial curve]	–

# Further records

Compound,Potency,"activity change, negative = inhibition"
O=C1c2oc3ccccc3c(=O)c2C(c2cccc(O)c2)N1CCCN1CCOCC1 (configuration not stated),–,inactive: 9.72%
O=c1c2[nH]c3ccc(F)cc3c2ncn1CCCN1CCOCC1,–,inactive: 20.3%
CCCCNCCOCCOc1ccc(F)cc1,–,inactive: 7.86%
CCOc1ccc(CNCc2c(C(=O)O)n(Cc3ccc(OC)cc3)c3ccccc23)cc1,"inconclusive: 29.1 µM [falling, single point]",–
COc1ccccc1N1CCN(C(=O)c2cc(-c3ccc(F)cc3)[nH]c2C)CC1,"inconclusive: 23.1 µM [falling, single point]",–
Cc1c(C(=O)NCC2CCCO2)oc2ccc(S(=O)(=O)N3CC(C)CC(C)C3)cc12 (configuration not stated),"inconclusive: 4.11 µM [falling, partial curve]",–
COc1ccc(-c2nc3c(C#N)c[nH]n3c2NC2CCCC2)cc1,–,inactive: 14%
CC(=O)Nc1ccc(S(=O)(=O)N2CCC(n3cnc4cc(F)ccc43)CC2)cc1,"inconclusive: 29.1 µM [falling, partial curve, poor fit]",–
O=C(Nc1ccon1)C(Sc1ccccc1)c1ccccc1 (configuration not stated),"inconclusive: 32.6 µM [falling, single point]",–
CC(=O)Oc1ccc(N2C(=O)CCC2=O)cc1,–,inactive: 14.3%
O=C(Nc1ccn(Cc2ccccc2)n1)c1cccc(F)c1,"inconclusive: 0.461 µM [activator, full curve, poor fit]",–
Nc1cc(=O)[nH]c(SCC(=O)Nc2ccccc2-c2ccccc2)n1,–,inactive: 29%
C#CCn1ccc(O)c(Cc2ccccc2)c1=O,"inconclusive: 2.06 µM [activator, full curve, poor fit]",–
COc1cc(/C=N/NS(=O)(=O)c2ccccc2)ccc1OS(=O)(=O)c1ccc(C)cc1,"inconclusive: 29.1 µM [falling, single point]",–
CS(=O)(=O)N(Cc1ccc(C(=O)N2CCc3ccccc3C2)cc1)c1ccccc1,–,inactive: -16.3%
CCN1/C(=C/c2ccc3cc(C)cc(C)c3[n+]2CC)Sc2cc(C)ccc21,"inconclusive: 3.26 µM [falling, full curve]",–
COc1cc(C2c3c(-c4c(C)cc(C)cc4O)n[nH]c3C(=O)N2CCCOC(C)C)cc(OC)c1OC (configuration not stated),"inconclusive: 18.4 µM [activator, partial curve, poor fit]",–
O=C(O)c1ccc(C=C(c2nc3ccccc3s2)c2nc3ccccc3s2)cc1,"inconclusive: 29.1 µM [falling, single point]",–
CCC1CCCCN1c1cc(C)nc2cc(-c3cccc(C)c3)nn12 (configuration not stated),"inconclusive: 11.6 µM [falling, single point]",–
O=C(Cn1cnc2ccccc2c1=O)N1CCN(Cc2ccccc2)CC1,–,inactive: -0.686%
O=S(=O)(NCCOc1ccccc1Cl)c1ccc2oc3ccccc3c2c1,–,inactive: 0.457%
COc1ccc2nc3ccccc3nc2c1,"inconclusive: 29.1 µM [falling, single point]",–
CCC[n+]1c(C)sc2c3c(ccc21)CCCC3,"inconclusive: 29.1 µM [falling, single point]",–

Compound,Potency,"activity change, negative = inhibition"
COc1c(OC(C)=O)ccc(/C=C/c2ccc3cccc(OC)c3n2)c1[N+](=O)[O-],"inconclusive: 16.4 µM [falling, single point]",–
CC(C)=CCCC(C)N(C=O)C(C)CCC=C(C)C (configuration not stated),"inconclusive: 9.2 µM [activator, partial curve, poor fit]",–
CC(C)CC(C)NNC(=O)c1cc2ccccc2[nH]1 (configuration not stated),"inconclusive: 18.4 µM [activator, partial curve]",–
CC#CCN1c2ccccc2[C@]23C[C@@H](C(=O)OC)N(C(=O)c4ccc(Br)cc4)C2=NC(C(=O)OC)=C(C(=O)OC)[C@H]13,"inconclusive: 25.9 µM [falling, single point]",–
CCOc1ccc(NC(=O)CSc2nnc(Cn3c(=O)sc4ccccc43)n2C)cc1,"inconclusive: 4.11 µM [falling, full curve, poor fit]",–
COc1cccc(OCCNc2ccc([N+](=O)[O-])cn2)c1,"inconclusive: 29.1 µM [falling, single point]",–
Cc1ccc(-c2ocnc2C(=O)Nc2nc(C)cs2)cc1,"inconclusive: 25.9 µM [activator, single point]",–
COc1ccc(/C=N/NC(=O)Cn2cnc3ccccc3c2=O)cc1,"inconclusive: 9.2 µM [activator, partial curve, poor fit]",–
COc1cc2ncnc(NCc3ccccc3Cl)c2cc1OC,"inconclusive: 10.3 µM [falling, partial curve]",–
COC(=O)c1ccc(NC(=O)NC2CCCCC2)cc1,"inconclusive: 23.1 µM [activator, single point]",–
COc1ccccc1Nc1nc(N)nc(CN2CCN(c3ccccc3F)CC2)n1,–,inactive: 0.808%
CC1CCCN(S(=O)(=O)c2ccc(C(=O)Nc3nnc(-c4ccco4)o3)cc2)C1 (configuration not stated),active: 8.2 µM,–
C/C(Cl)=C\Cn1c(NCCc2ccccc2)nc2c1c(=O)n(C)c(=O)n2C,active: 2.91 µM,–
CCS(=O)(=O)N1CCN(c2cc3c(cc2[N+](=O)[O-])n(C)c(=O)n3C)CC1,"inconclusive: 13 µM [falling, partial curve, poor fit]",–
CC(=O)c1sc(NC(=O)C2COc3ccccc3O2)nc1C (configuration not stated),"inconclusive: 7.31 µM [falling, partial curve, poor fit]",–
COCCCNc1nc2c(c(=O)n(C)c(=O)n2C)n1Cc1ccccc1,"inconclusive: 14.6 µM [falling, partial curve]",–
COC(=O)C1=C(C)NC2=C(C(=O)CCC2)C1c1cn(Cc2ccc(Cl)cc2Cl)nc1-c1ccccc1 (configuration not stated),active: 25.9 µM,–
N#Cc1ccc(-c2ccc(OCC(O)Cn3nnc4ccccc43)cc2)cc1 (configuration not stated),"inconclusive: 29.1 µM [falling, single point]",–
CC(C)c1ccc(-c2nnn(CCC(=O)O)n2)cc1,active: 0.326 µM,–
COc1ccc(CCN(C)Cc2nc(Cc3ccc(OC)c(OC)c3)no2)cc1OC,"inconclusive: 29.1 µM [falling, single point]",–
CCC1CN(C(=O)N2CCC(C(=O)NCc3ccco3)CC2)c2cc(C)ccc2O1 (configuration not stated),"inconclusive: 8.2 µM [falling, partial curve, poor fit]",–
